For the test, the system named is HCoV-OC43. Further details: species or system RD; HTS, protection from HCoV-OC43 induced cell death, luminescent cell viability (CellCounting-Lite 2.0), inhibition rate. As to conditions: 24 h post infection, 1 h compound pre-incubation, 10 µM, inhibitor.

Where a name gives a salt, the structure may show the parent alone. Read-outs that look alike come from different tables or passages of the source. The campaign covered roughly 3,300 compounds. About 60 (2%) showed an effect of 50% or more. Some of the results follow.

Results on 40 compounds are retold here after paper PMC12431657, “Discovery and mechanistic insights of dibenzoylmethane as a broad spectrum inhibitor of coronavirus” (PLOS Pathogens, 2025).

`COc1cc2cc(c1Cl)N(C)C(=O)C[C@H](OC(=O)[C@H](C)N(C)C(C)=O)[C@]1(C)O[C@H]1[C@H](C)[C@@H]1C[C@@](O)(NC(=O)O1)[C@H](OC)/C=C/C=C(\C)C2` [Maytansine]: the “OC43 Inhibition rate” value was 3.2%.

`CC(C)=CCC/C(C)=C/CC/C(C)=C/Cc1c(O)c2ccccc2oc1=O` [Ferulenol]: the “OC43 Inhibition rate” value is -1.1%.

As to `COC(=O)CC[C@@H](C)[C@H]1CC[C@H]2[C@@H]3[C@H](O)C[C@@H]4C[C@H](O)CC[C@]4(C)[C@H]3C[C@H](O)[C@]12C` [Methyl cholate], the “OC43 Inhibition rate” value is -0.2%.

Consider `C=C(CC[C@@H](C(=O)O)[C@H]1[C@H](O)C[C@@]2(C)C3=CC[C@H]4C(C)(C)[C@@H](O)CC[C@]4(C)C3=CC[C@]12C)C(C)C` [Dehydrotumulosic acid], for which the “OC43 Inhibition rate” value was -1.5%.

For the compound `O=C(O)C1=CCCNC1` [Guvacine hydrochloride], the “OC43 Inhibition rate” value is recorded as -0.5%.

For the compound `CC[C@H](CC[C@@H](C)[C@H]1CC[C@H]2[C@@H]3CC=C4C[C@@H](O)CC[C@]4(C)[C@H]3CC[C@]12C)C(C)C` [Beta-Sitosterol (purity>75%)], for the setting “OC43 Inhibition rate, 24 h”, the “OC43 Inhibition rate” value is reported as -4.5%.

With `COc1ccc2cc3[n+](cc2c1O)CCc1cc2c(cc1-3)OCO2` [Berberrubine (chloride)], the “OC43 Inhibition rate” value is reported as -0.4%.

With `CC(=O)N1C[C@H](O)C[C@H]1C(=O)O` [Oxaceprol], the “OC43 Inhibition rate” value stood at 0.4%.

In the case of `O=c1cc(-c2ccc(O)cc2)oc2cccc(O)c12` [4',5-Dihydroxyflavone], the “OC43 Inhibition rate” value is given as 19.4%.

On to `COc1cc(O)c2c(=O)cc(-c3ccc(O)c(O)c3)oc2c1` [Hydroxygenkwanin], for which the “OC43 Inhibition rate” value is reported as 17%.

For `COc1cc(/C=C/C(=O)NCCc2ccc(O)cc2)ccc1O` [N-trans-Feruloyltyramine], the “OC43 Inhibition rate” value came out at 6.3%.

As to `COc1ccc(CC(=O)O)cc1OC` [3,4-Dimethoxyphenylacetic acid], the “OC43 Inhibition rate” value is reported as -0.2%.

Take `CCC(=O)c1c(O)cc(O)cc1O` [Flopropione]: the “OC43 Inhibition rate” value is listed as 1.3%.

Consider `COc1c(O)c(C)cc2c1C(=O)c1c(O)cccc1C2=O` [Obtusifolin], for which the “OC43 Inhibition rate” value worked out at 3.3%.

Turning to `COc1ccc(-c2oc3c(CC=C(C)C)c(O[C@@H]4O[C@H](CO)[C@@H](O)[C@H](O)[C@H]4O)cc(O)c3c(=O)c2O[C@@H]2O[C@@H](C)[C@H](O)[C@@H](O)[C@H]2O[C@@H]2OC[C@@H](O)[C@H](O)[C@H]2O)cc1` [Epimedin B], the “OC43 Inhibition rate” value amounted to 1%.

Take `N[C@@H](CS(=O)(=O)O)C(=O)O` [L-Cysteic acid (monohydrate)]: the “OC43 Inhibition rate” value was determined as 4.5%.

In the case of `COc1c(-c2ccc(O)c(O)c2)oc2cc(O)cc(O)c2c1=O` [3-O-Methylquercetin], the “OC43 Inhibition rate” value is -0.7%.

Turning to `COC(=O)c1ccc(O)cc1` [Methyl Paraben], the “OC43 Inhibition rate” value was -3%.

Turning to `OC[C@H]1O[C@@](CO)(OC[C@@]2(OC[C@@]3(OC[C@@]4(OC[C@@]5(OC[C@@]6(OC[C@@]7(OC[C@@]8(O[C@H]9O[C@H](CO)[C@@H](O)[C@H](O)[C@H]9O)O[C@H](CO)[C@@H](O)[C@@H]8O)O[C@H](CO)[C@@H](O)[C@@H]7O)O[C@H](CO)[C@@H](O)[C@@H]6O)O[C@H](CO)[C@@H](O)[C@@H]5O)O[C@H](CO)[C@@H](O)[C@@H]4O)O[C@H](CO)[C@@H](O)[C@@H]3O)O[C@H](CO)[C@@H](O)[C@@H]2O)[C@@H](O)[C@@H]1O` [Fructo-oligosaccharide DP9/GF8], the “OC43 Inhibition rate” value is reported as -1%.

With `COc1cc2oc(-c3ccccc3)cc(=O)c2c(O)c1O` [Negletein], the “OC43 Inhibition rate” value is 0.2%.

Turning to `O=C(O)C/C=C(\CC(=O)O)C(=O)O` [Triglochinic acid], the “OC43 Inhibition rate” value is -0.3%.

In the case of `O=C[C@H](O)[C@@H](O)[C@H](O)CO` (racemic) [DL-Xylose], the “OC43 Inhibition rate” value (OC43 Inhibition rate, 24 h) turned out to be 3.6%.

`NC(=O)/C=C\C(=O)O` [(Z)-4-Amino-4-oxobut-2-enoic acid]: the “OC43 Inhibition rate” value is reported as -0.2%.

Consider `Cn1cnc(C[C@H](N)C(=O)O)c1` [1-Methyl-L-histidine], for which the “OC43 Inhibition rate” value is reported as 7.3%.

For the compound `CCC(C(=O)O)c1ccccc1` (stereo not shown) [2-Phenylbutanoic acid], the “OC43 Inhibition rate” value is on record as -1.9%.

Take `COc1ccccc1/C=C/C=O` [2-Methoxycinnamaldehyde]: the “OC43 Inhibition rate” value is 0.2%.

Take `COc1cc(CCC(=O)O)cc(OC)c1OC` [3-(3,4,5-Trimethoxyphenyl)propanoic acid]: the “OC43 Inhibition rate” value is -1.1%.

Take `CC12CC3OC4O[C@H](CO)[C@@H](O)[C@H](O)[C@H]4OC34CC1C4(COC(=O)c1ccccc1)C(=O)O2` (stereo partly shown) [Lactiflorin]: the “OC43 Inhibition rate” value is on record as 2%.

In the case of `CC1=C(CO)C(=O)O[C@@H]([C@@H](C)[C@H]2CC[C@H]3[C@@H]4C[C@H]5O[C@]56[C@@H](O)C=CC(=O)[C@]6(C)[C@H]4CC[C@]23C)C1` [Withaferin A], the “OC43 Inhibition rate” value is -10.2%.

For `CCOC(=O)/C=C/c1ccccc1` [Ethyl cinnamate], the “OC43 Inhibition rate” value is -1.2%.

On to `COc1ccc(/C=C/C(=O)O)cc1` [(E)-3-(4-Methoxyphenyl)acrylic acid], for which the “OC43 Inhibition rate” value (OC43 Inhibition rate, 24 h) is recorded as 1.2%.

Consider `CC(=O)c1c(O)cccc1O` [2,6-Dihydroxyacetophenone], for which the “OC43 Inhibition rate” value is listed as -2%.

Consider `COC(=O)c1c[nH]c2ccccc12` [Methyl indole-3-carboxylate], for which the “OC43 Inhibition rate” value turned out to be 0.5%.

For the compound `CC(C)=CCC/C(C)=C/CO` [Geraniol], the “OC43 Inhibition rate” value stood at 0.3%.

On to `COC(=O)c1c(O)cc(O)cc1O` [Methyl 2,4,6-trihydroxybenzoate], for which the “OC43 Inhibition rate” value stood at 0%.

For `CC1(C)CC[C@]2(C(=O)O)CC[C@]3(C)C(=CC[C@@H]4[C@@]5(C)CC[C@H](O)[C@@](C)(CO)[C@@H]5CC[C@]43C)[C@@H]2C1` [Hederagenin], the “OC43 Inhibition rate” value is -3.7%.

Regarding `O=C1c2ccccc2C(=O)c2c(O)ccc(O)c21` [Quinizarin], the “OC43 Inhibition rate” value is listed as -0.1%.

Consider `CC1=CCC(O)(C(C)C)CC1` (stereo not shown) [Terpinen-4-ol], for which the “OC43 Inhibition rate” value is -0.7%.

Turning to `O=C(N[C@H](COC(=O)[C@H](Cc1ccccc1)NC(=O)c1ccccc1)Cc1ccccc1)c1ccccc1` [Asperphenamate], the “OC43 Inhibition rate” value was -0.3%.

Consider `CC1(C)CC[C@]2(C(=O)O)[C@H](O)C[C@]3(C)C(=CC[C@@H]4[C@@]5(C)CC[C@H](O)C(C)(C)[C@@H]5CC[C@]43C)[C@@H]2C1` [Echinocystic acid], for which the “OC43 Inhibition rate” value is reported as -2.7%.
